# Results from the supplement of paper PMC7666118.
# Chains of the proteins cited; added tags and fusions are not shown. Lines headed by an entry give the natural chain unless they say otherwise; changes in a name come on top.
# UniProt Q01459: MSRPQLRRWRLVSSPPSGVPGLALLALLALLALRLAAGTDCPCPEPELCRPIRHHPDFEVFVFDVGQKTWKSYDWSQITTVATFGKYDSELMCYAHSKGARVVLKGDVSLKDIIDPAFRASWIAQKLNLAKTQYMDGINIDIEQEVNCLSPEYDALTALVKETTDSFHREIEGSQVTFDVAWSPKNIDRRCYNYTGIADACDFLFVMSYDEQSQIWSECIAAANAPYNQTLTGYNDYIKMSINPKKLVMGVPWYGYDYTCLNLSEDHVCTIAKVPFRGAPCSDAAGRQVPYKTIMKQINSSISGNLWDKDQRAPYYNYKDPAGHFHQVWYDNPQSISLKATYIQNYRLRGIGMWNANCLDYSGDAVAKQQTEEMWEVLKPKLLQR
# UniProt Q9UK59: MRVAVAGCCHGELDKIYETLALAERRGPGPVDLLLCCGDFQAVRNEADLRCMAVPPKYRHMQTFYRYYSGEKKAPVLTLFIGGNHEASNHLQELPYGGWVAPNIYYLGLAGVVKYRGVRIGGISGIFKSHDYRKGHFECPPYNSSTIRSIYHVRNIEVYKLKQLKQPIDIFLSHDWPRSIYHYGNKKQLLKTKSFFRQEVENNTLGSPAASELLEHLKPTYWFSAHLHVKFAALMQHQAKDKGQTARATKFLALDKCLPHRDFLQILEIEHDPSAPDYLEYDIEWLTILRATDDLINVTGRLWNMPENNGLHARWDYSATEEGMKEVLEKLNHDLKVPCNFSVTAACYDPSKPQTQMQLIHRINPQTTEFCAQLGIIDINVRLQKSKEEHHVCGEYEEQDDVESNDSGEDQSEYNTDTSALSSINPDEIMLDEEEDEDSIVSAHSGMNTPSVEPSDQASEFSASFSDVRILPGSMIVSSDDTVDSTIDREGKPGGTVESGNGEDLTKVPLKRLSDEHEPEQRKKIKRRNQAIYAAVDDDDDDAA
# UniProt Q8TEH3: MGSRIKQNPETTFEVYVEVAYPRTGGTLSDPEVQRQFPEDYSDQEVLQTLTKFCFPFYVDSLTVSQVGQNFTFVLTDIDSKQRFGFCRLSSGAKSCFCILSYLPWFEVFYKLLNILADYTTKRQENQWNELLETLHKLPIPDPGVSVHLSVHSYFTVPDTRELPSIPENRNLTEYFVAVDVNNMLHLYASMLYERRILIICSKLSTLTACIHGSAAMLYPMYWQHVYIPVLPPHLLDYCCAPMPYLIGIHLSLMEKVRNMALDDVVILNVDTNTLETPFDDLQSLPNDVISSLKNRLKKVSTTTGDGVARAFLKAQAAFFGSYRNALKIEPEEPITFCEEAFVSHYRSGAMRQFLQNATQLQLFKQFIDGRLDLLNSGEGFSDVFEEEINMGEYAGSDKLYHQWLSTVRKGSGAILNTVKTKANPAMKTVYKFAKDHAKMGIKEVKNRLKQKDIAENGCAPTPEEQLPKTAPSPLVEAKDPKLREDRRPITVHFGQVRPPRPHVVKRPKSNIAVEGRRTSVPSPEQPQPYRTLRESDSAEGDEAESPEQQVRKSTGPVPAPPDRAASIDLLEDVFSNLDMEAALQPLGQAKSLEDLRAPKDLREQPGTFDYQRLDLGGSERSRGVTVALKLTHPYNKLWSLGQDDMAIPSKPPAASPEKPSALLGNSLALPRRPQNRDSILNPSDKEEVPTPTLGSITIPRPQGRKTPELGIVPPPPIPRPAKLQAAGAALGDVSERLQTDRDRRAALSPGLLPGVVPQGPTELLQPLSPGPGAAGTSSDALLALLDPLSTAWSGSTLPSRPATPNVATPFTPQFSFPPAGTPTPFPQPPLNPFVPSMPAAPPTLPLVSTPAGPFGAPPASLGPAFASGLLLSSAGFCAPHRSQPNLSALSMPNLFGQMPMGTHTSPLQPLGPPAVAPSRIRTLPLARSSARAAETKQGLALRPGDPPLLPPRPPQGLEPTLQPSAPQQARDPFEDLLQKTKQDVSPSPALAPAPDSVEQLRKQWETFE
# UniProt Q13618, whole entry: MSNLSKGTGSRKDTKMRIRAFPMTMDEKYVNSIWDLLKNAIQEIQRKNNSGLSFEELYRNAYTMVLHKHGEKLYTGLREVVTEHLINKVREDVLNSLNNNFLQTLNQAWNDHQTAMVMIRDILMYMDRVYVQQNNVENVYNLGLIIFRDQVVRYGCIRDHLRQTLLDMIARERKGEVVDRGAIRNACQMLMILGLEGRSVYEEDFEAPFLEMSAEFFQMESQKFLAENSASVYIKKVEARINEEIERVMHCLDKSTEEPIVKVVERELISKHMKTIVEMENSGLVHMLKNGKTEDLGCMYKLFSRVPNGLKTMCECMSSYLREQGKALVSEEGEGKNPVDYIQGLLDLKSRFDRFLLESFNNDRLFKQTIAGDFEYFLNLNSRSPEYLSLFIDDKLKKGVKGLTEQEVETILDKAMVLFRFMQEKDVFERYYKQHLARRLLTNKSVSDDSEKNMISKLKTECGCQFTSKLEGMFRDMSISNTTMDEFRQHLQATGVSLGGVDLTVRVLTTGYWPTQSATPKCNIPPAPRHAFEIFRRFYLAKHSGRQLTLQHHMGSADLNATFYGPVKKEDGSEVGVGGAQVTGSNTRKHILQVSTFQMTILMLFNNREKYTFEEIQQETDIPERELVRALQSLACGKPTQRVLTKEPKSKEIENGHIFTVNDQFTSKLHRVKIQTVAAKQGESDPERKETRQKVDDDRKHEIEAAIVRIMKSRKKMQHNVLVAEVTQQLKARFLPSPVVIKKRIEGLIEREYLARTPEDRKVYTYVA
# UniProt Q9P2I0: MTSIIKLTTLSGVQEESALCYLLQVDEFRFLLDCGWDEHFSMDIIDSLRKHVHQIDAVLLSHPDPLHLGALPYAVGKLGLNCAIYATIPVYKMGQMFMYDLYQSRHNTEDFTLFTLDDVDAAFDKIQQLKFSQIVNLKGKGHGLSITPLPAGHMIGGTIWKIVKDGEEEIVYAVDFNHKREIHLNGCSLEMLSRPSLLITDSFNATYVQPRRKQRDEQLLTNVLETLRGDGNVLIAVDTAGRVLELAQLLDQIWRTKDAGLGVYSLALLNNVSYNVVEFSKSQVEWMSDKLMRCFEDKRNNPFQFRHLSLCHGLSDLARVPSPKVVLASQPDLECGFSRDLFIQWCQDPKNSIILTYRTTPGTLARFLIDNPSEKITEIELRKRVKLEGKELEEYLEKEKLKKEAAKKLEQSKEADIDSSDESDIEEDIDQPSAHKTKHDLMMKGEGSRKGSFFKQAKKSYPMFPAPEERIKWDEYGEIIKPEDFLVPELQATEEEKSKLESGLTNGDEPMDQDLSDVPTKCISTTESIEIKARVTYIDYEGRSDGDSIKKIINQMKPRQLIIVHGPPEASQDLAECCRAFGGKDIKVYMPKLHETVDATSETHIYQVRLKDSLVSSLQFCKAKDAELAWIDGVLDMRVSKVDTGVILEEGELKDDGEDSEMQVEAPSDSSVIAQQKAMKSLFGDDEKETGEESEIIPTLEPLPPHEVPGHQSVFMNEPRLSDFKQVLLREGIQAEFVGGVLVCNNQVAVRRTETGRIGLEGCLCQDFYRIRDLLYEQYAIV
# UniProt P13498: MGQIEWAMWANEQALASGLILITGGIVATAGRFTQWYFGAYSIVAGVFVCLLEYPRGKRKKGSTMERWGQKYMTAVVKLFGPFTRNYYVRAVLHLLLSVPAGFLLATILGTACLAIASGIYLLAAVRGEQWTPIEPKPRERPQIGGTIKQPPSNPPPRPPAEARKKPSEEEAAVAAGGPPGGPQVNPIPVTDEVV
# UniProt Q9UBT7: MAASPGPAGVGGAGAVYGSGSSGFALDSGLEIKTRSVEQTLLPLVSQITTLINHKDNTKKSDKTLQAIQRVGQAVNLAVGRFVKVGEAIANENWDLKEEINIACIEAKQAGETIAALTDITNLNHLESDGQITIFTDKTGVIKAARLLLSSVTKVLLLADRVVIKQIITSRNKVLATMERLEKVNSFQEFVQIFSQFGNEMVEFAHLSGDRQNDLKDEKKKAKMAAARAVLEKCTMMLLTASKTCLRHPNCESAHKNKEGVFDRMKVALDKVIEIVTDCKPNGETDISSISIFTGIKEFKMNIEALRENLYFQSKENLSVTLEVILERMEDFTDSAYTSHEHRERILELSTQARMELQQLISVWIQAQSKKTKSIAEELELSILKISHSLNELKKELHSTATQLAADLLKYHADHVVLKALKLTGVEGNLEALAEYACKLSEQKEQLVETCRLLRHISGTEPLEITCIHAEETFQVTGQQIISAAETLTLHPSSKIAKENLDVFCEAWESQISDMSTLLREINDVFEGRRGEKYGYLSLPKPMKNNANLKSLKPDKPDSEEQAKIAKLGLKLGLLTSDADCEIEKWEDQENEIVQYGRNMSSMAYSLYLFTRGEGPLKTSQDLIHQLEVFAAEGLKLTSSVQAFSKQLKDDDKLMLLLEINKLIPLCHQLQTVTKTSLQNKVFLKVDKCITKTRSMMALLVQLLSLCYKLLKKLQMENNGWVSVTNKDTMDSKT
# UniProt P57737: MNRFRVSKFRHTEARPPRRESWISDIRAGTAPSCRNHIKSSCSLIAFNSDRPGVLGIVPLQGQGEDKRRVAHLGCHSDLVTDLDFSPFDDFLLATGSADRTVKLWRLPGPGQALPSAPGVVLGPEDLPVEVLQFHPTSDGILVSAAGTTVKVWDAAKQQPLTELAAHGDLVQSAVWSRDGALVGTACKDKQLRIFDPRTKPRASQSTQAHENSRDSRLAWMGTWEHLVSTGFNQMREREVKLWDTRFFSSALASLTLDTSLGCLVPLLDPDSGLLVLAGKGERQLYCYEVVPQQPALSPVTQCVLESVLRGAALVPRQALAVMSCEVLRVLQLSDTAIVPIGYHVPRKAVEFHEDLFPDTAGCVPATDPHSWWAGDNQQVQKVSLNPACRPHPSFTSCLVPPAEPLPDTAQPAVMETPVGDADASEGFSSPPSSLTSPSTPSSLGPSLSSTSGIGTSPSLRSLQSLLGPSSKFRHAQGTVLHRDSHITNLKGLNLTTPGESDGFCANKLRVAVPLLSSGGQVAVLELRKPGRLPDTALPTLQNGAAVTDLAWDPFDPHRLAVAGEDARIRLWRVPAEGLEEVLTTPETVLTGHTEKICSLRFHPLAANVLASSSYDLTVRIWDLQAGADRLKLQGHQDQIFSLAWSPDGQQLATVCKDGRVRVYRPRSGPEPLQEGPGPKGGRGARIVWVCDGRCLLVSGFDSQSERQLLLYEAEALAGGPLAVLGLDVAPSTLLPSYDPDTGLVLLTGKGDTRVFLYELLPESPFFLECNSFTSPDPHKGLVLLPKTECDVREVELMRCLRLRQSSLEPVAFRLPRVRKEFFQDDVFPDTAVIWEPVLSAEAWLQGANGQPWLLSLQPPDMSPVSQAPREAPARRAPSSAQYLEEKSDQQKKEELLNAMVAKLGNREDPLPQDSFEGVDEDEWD
# UniProt Q9BTE7: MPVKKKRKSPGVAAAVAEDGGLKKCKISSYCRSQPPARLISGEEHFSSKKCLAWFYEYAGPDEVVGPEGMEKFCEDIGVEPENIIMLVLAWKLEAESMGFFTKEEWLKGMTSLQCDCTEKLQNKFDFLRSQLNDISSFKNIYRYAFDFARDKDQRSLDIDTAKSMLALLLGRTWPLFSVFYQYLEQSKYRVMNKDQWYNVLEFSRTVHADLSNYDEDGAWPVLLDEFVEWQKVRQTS
# UniProt O00399, whole entry: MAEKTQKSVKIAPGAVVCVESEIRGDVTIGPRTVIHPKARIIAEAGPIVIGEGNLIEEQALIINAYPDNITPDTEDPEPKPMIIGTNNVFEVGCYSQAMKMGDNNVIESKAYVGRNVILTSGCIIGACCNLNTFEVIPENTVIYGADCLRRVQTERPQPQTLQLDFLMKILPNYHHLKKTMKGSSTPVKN
# UniProt Q96C86: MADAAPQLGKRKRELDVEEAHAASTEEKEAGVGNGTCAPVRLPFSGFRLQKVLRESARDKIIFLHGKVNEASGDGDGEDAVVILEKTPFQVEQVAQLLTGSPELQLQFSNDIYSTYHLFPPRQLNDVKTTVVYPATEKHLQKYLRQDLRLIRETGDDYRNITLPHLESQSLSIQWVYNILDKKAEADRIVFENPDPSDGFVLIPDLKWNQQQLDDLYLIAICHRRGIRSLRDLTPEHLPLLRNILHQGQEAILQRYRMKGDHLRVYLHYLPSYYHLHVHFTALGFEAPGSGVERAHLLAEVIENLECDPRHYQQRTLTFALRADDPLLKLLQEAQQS
# UniProt P46108: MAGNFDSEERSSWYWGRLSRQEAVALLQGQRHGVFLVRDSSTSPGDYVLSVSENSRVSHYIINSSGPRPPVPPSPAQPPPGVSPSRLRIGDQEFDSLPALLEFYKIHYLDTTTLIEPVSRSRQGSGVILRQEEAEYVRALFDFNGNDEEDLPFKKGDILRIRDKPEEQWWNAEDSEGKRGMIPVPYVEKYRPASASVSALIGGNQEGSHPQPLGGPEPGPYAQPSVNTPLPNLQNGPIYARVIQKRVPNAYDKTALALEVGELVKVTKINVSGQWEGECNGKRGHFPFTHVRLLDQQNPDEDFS
# The other results are listed elsewhere or left out.
# Compound: COc1ccc(Cn2ccc3ccc(C(=O)NO)cc32)cc1
# Experiment: dose-dependent thermal stabilisation call (2D-TPP, DLPTP, 10% FDR) (binary (1 = stabilised)); higher = stabilised by the compound
# Settings: system: HL-60 intact cells; concentration range 0.04-10 µM
row,Target,dose-dependent thermal stabilisation call
1,CTBS (UniProt Q01459),inactive: 0
2,DDX42 (UniProt Q86XP3),inactive: 0
3,DDX23 (UniProt Q9BUQ8),inactive: 0
4,DBR1 (UniProt Q9UK59),active: 1
5,DENND1A (UniProt Q8TEH3),inactive: 0
6,DBNL (UniProt Q9UJU6),inactive: 0
7,CUL3 (UniProt Q13618),inactive: 0
8,DHDDS (UniProt Q86SQ9),inactive: 0
9,DCP1A (UniProt Q9NPI6),inactive: 0
10,DHODH (UniProt Q02127),inactive: 0
11,DBT (UniProt P11182),inactive: 0
12,DHRS4 (UniProt Q9BTZ2),inactive: 0
13,DDX24 (UniProt Q9GZR7),inactive: 0
14,COMMD5 (UniProt Q9GZQ3),inactive: 0
15,DAK (UniProt Q3LXA3),inactive: 0
16,CPSF2 (UniProt Q9P2I0),inactive: 0
17,DDX58 (UniProt O95786),inactive: 0
18,CPSF3 (UniProt Q9UKF6),inactive: 0
19,CYP51A1 (UniProt Q16850),active: 1

# Two consecutive entries out of the list so far, for reference:
row,Target,dose-dependent thermal stabilisation call
13,DDX24 (UniProt Q9GZR7),inactive: 0
14,COMMD5 (UniProt Q9GZQ3),inactive: 0

# (next part)

row,Target,dose-dependent thermal stabilisation call
1,DCTN4 (UniProt Q9UJW0),inactive: 0
2,CPSF1 (UniProt Q10570),inactive: 0
3,DDX60 (UniProt Q8IY21),inactive: 0
4,DCTN1 (UniProt Q14203),inactive: 0
5,CYBA (UniProt P13498),inactive: 0
6,CTSC (UniProt P53634),inactive: 0
7,CUL4A (UniProt Q13619),inactive: 0
8,DDAH2 (UniProt O95865),inactive: 0
9,CTNNAL1 (UniProt Q9UBT7),inactive: 0
10,CORO7 (UniProt P57737),inactive: 0
11,COPB2 (UniProt P35606),inactive: 0
12,CXORF56 (UniProt Q9H5V9),inactive: 0
13,CUGBP1 (UniProt Q92879),inactive: 0
14,DCUN1D5 (UniProt Q9BTE7),inactive: 0
15,DCTN6 (UniProt O00399),inactive: 0
16,CUL4B (UniProt Q13620),inactive: 0
17,DCPS (UniProt Q96C86),inactive: 0
18,CRK (UniProt P46108),inactive: 0
19,CSRP1 (UniProt P21291),inactive: 0
